Drawing on paper PMC6219832, this text covers binding for one substance.

The chains behind the UniProt entries cited, without tags or fusion partners.
UniProt O14744: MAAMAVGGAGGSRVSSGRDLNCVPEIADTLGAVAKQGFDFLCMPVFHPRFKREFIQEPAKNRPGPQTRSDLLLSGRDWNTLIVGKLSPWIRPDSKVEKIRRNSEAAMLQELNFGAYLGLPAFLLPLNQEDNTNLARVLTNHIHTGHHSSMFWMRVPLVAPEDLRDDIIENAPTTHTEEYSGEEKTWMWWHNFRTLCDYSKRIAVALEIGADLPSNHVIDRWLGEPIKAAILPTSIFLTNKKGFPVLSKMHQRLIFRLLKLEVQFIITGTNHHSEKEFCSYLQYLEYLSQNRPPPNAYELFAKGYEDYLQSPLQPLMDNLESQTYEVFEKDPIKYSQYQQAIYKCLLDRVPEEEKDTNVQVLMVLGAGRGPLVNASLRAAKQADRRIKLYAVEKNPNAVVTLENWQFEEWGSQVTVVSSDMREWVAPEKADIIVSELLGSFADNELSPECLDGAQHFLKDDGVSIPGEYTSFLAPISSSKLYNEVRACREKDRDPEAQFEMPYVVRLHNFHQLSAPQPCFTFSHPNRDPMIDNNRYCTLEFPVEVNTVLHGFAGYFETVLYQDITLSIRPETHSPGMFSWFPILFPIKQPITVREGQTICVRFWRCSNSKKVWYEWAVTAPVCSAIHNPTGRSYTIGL

Results are given in words; binding and its absence hold for the method and conditions named. In cells and extracts the contact can be indirect. Here binding means that the protein was enriched with, or labelled near, the bait; the list need not be complete. Tags and fused reporters may be left off the sequences shown.

This test has as its target T1, Flag-DUSP14 (wild-type), expressed in HEK293T cells (human) (UniProt O95147).
T1 sequence: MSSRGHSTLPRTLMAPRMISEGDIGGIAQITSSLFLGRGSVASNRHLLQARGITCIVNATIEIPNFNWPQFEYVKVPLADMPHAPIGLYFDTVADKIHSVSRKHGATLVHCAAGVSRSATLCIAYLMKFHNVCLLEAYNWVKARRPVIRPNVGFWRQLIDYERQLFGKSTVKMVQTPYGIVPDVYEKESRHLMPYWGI
Nature of the test: affinity purification with mass spectrometry; HEK293T cells transfected with Flag-DUSP14; anti-Flag immunoprecipitation, SDS-PAGE, silver-stained bands excised, trypsin, MS.

Consider “endogenous PRMT5 of HEK293T cells (from UniProt O14744 1-637) (enzyme)”, for which the binding entry is “binds”.
